Laboratory results as given in article PMC10432976.
These are yes or no findings as the source states them, for the method shown. Binding seen in cells or lysates may run through a third protein. Sequences can lack the tags named with a protein.

Target: HA-tagged LRR domain of LRRFIP2
Experiment: co-IP; HA-tagged LRR domains and Flag-TRB3 coexpressed in HepG2 cells; HA immunoprecipitation, Western blot for Flag-TRB3; without or with LPS 10 ng/ml for 30 min

B1: Flag-TRB3 (coexpressed in HepG2 cells) (protein, UniProt Q8K4K2 1-354)
chain: MRATPLAASADVSCRKKPLEFDDNIDAKCPVLKRVRDEPEPGPLPSLLPPSPPPASDLSPAVAPATRLGPYILLEREQGSCSYRALHCPTGTEYTCKVYPASEAQAVLAPYARLPTHQHVARPTEVLLGSRLLYIFFTKTHGDLHSLVRSRRGIPESEAAGLFRQMASAVAHCHKHGLVLRDLKLRRFVFSNCERTKLVLENLEDACVMTGSDDSLWDKHACPAYVGPEILSSRPSYSGKAADVWSLGVALFTMLAGRYPFHDSEPVLLFGKIRRGTFALPEGLSAPARCLIRCLLRKEPSERLVALGILLHPWLREDHGRVSPPQSDRREMDQVVPDGPQLEEAEEGEVGLYG
In the case of B1, the binding is reported as “no binding”.
